No constants are given. Whether binding was seen depends on the method and setting. Binding seen in cells or lysates may run through a third protein. Some binding calls cover weakened binding; strength is not graded here.
Key:
[1] = molecular target: FLAG-Tubb2b (Tubulin beta 2B class IIb) (human) (UniProt Q9BVA1); test: co-IP; HEK293 cells transiently expressing FLAG-Tubb2b and EGFP-TRIM50; lysates IP anti-FLAG, blot anti-GFP
[2] = molecular target: Myc-tagged p62 (UniProt Q13501); test: co-IP; FLAG-TRIM50#3 cells transfected with Myc-p62; total lysates IP anti-FLAG and blot anti-Myc, and IP anti-Myc and blot anti-FLAG
[3] = molecular target: FLAG-tagged TRIM50 (UniProt Q86XT4); test: pull-down; 3 µg of GST-recombinant protein mixed with 40 µg of total FLAG-TRIM50#3 cell lysate, 4°C for 2 h, then FLAG antibody for 4 h; washed four times; blot anti-GST; only the binder purified
[4] = molecular target: FLAG-tagged TRIM50 (UniProt Q86XT4); test: co-IP; FLAG-TRIM50#3 cells transfected with Myc-p62; total lysates IP anti-FLAG and blot anti-Myc, and IP anti-Myc and blot anti-FLAG
[5] = molecular target: FLAG-tagged TRIM50 (UniProt Q86XT4); test: co-IP; lysates of the HEK293 FLAG-TRIM50#3 cell line, with and without MG132; IP anti-FLAG, immunoblot with HDAC6 antibody

By UniProt entry, the sequences of proteins in these tests, tags left out.
UniProt Q9BVA1: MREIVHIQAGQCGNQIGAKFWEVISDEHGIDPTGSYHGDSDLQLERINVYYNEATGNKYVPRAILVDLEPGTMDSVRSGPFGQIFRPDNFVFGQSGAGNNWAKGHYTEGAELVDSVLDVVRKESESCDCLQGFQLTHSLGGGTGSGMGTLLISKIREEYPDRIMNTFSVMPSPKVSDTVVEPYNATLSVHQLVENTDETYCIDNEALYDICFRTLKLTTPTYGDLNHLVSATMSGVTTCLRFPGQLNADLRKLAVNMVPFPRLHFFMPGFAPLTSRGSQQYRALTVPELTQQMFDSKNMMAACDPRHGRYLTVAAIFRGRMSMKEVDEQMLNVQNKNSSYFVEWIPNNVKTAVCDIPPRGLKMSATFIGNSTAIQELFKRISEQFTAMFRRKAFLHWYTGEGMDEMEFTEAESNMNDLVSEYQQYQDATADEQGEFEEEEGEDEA
UniProt Q86XT4: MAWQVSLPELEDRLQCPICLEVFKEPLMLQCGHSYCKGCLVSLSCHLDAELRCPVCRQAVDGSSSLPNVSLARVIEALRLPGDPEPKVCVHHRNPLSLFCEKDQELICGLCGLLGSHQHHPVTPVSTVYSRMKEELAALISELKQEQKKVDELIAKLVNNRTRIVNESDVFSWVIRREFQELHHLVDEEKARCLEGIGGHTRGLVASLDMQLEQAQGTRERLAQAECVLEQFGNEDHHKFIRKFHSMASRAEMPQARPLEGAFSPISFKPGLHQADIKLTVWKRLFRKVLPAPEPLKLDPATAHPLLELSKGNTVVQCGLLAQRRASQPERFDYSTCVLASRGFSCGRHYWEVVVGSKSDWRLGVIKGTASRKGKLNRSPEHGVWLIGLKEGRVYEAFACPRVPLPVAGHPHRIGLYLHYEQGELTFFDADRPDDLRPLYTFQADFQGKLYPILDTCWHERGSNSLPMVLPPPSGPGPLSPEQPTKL
UniProt Q9UBN7: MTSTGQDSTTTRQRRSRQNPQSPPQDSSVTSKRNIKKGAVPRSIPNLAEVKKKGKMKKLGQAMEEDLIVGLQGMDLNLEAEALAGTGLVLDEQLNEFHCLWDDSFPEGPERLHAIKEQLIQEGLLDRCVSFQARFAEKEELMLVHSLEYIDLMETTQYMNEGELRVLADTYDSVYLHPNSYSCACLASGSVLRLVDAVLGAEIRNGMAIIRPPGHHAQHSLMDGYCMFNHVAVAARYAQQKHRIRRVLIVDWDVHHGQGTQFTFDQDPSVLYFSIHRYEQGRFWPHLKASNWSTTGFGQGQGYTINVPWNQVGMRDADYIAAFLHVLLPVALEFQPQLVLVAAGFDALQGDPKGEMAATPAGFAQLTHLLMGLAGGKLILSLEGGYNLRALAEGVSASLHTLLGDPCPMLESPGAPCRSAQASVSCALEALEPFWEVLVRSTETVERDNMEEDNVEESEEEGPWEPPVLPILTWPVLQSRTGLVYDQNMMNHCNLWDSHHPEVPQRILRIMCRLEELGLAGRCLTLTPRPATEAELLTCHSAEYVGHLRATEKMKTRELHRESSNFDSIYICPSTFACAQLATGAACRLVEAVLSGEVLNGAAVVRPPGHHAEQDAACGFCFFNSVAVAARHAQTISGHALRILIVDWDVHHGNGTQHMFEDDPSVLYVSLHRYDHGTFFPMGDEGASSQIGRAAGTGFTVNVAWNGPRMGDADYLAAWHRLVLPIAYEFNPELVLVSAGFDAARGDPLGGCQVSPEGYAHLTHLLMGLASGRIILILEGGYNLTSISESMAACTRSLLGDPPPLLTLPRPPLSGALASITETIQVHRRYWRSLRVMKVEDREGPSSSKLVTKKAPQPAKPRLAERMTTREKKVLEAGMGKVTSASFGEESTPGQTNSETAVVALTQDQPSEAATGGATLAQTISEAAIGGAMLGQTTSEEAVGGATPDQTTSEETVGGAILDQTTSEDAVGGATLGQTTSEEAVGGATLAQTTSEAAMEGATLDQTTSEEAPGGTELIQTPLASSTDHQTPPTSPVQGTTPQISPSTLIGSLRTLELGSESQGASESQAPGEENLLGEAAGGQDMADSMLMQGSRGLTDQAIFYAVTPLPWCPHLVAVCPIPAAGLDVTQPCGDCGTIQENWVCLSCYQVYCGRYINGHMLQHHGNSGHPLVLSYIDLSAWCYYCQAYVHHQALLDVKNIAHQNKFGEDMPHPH

“EGFP-TRIM50 (from UniProt Q86XT4 1-487) (enzyme)” was tested, and the binding [1] was “binds”.
For “FLAG-tagged TRIM50 (from UniProt Q86XT4 1-487) (enzyme)”, the binding [2] was “binds”.
For “GST-p62 (231–385) (from UniProt Q13501 231-385) (domain or fragment)”, the binding [3] was “binds”.
With “GST-p62 (232–370) (from UniProt Q13501 232-370) (domain or fragment)” the binding [3] was “binds”.
“Myc-tagged p62 (from UniProt Q13501 1-440)” was tested, and the binding [4] was “binds”.
For “histone deacetylase 6, HDAC6 (from UniProt Q9UBN7 1-1215)”, the binding [5] was “binds”.
